PubChem BioAssay AID1259424, University of Nebraska Medical Center, 2018
Purpose: 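Rank knockdowns across the genome by resemblance to the KSR1 depletion profile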 (primary screen). System: human HCT116 colon cancer cells. Knock-down reagent: siRNA pool against human genes, 50 nM. Read-out: 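Log2 levels of six mRNAs (branched-DNA multiplex), adjusted by two reference genes and the non-targeting median, then scored against the average KSR1 knockdown pattern as Pearson r and euclidean distance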. Reading the numbers: mean correlation with KSR1 profile and KSR1 correlation: higher = expression change more like KSR1 knockdown; mean distance from KSR1 profile: higher = expression change less like KSR1 knockdown.
The deposit covers about 14,000 reagents; below is a random part of them. 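Higher correlation or smaller distance means closer resemblance to KSR1 loss; control wells, including KSR1 knockdowns, recur on many plates.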 Reagent sequences are not shown. Not stated in the record: the time to read-out.

mean correlation with KSR1 profile | mean distance from KSR1 profile | KSR1 correlation, replicate 1 | KSR1 correlation, replicate 2 | KSR1 correlation, replicate 3 | target
-0.469 | 2.23 | -0.287 | -0.573 | -0.176 | SLC25A14
0.158 | 4.01 | 0.356 | 0.0432 | -0.0609 | LINC00869 (long independently transcribed non-coding RNA 869)
-0.517 | 1.91 | -0.444 | -0.354 | -0.612 | NCOA6 (nuclear receptor coactivator 6)
0.236 | 1.72 | 0.374 | 0.446 | 0.0696 | NEUROG1 (neurogenin 1)
-0.54 | 2.98 | -0.571 | -0.611 | -0.535 | CDC42EP1 (CDC42 effector protein 1)
0.34 | 1.59 | 0.142 | 0.217 | 0.368 | BAX (BCL2 associated X, apoptosis regulator)
-0.298 | 1.8 | -0.659 | -0.319 | -0.194 | PCDH20 (protocadherin 20)
-0.552 | 2.19 | -0.245 | -0.66 | -0.744 | USP21 (ubiquitin specific peptidase 21)
0.165 | 2.28 | 0.447 | 0.365 | 0.155 | ART4 (ADP-ribosyltransferase 4 (inactive) (Dombrock blood group))
-0.442 | 2.56 | -0.404 | -0.202 | -0.282 | RFWD3 (ring finger and WD repeat domain 3)
-0.236 | 1.83 | -0.514 | -0.0484 | 0.0834 | RAB14 (RAB14, member RAS oncogene family)

Entries above whose target name begins with N or n (2):
mean correlation with KSR1 profile | mean distance from KSR1 profile | KSR1 correlation, replicate 1 | KSR1 correlation, replicate 2 | KSR1 correlation, replicate 3 | target
-0.517 | 1.91 | -0.444 | -0.354 | -0.612 | NCOA6 (nuclear receptor coactivator 6)
0.236 | 1.72 | 0.374 | 0.446 | 0.0696 | NEUROG1 (neurogenin 1)

Next entries follow.
mean correlation with KSR1 profile | mean distance from KSR1 profile | KSR1 correlation, replicate 1 | KSR1 correlation, replicate 2 | KSR1 correlation, replicate 3 | target
0.22 | 1.9 | 0.268 | 0.293 | 0.176 | ZNF200 (zinc finger protein 200)
0.366 | 3.24 | 0.31 | 0.315 | 0.168 | LINC00525 (long independently transcribed non-coding RNA 525)
-0.322 | 1.67 | -0.284 | -0.803 | -0.607 | DUSP10 (dual specificity phosphatase 10)
0.248 | 1.41 | 0.15 | 0.337 | 0.0385 | LRCH1
-0.215 | 1.87 | 0.00144 | -0.505 | -0.0265 | NNAT (neuronatin)
-0.23 | 1.91 | -0.243 | -0.421 | -0.204 | MT-ATP8 (mitochondrially encoded ATP synthase 8)
-0.676 | 1.88 | -0.619 | -0.812 | 0.000561 | MN1 (MN1 proto-oncogene, transcriptional regulator)
-0.331 | 3.11 | -0.475 | -0.375 | -0.36 | MARS1 (methionyl-tRNA synthetase 1)
0.339 | 1.76 | 0.115 | 0.492 | 0.255 | CALM1 (calmodulin 1)
-0.553 | 3.43 | -0.599 | -0.524 | -0.452 | RAB5IF (RAB5 interacting factor)
-0.285 | 1.37 | -0.0693 | -0.926 | 0.425 | AP3B1 (adaptor related protein complex 3 subunit beta 1)
0.449 | 2.76 | 0.667 | 0.129 | 0.19 | ZG16B (zymogen granule protein 16B)
0.595 | 1.19 | 0.644 | 0.663 | 0.102 | ZNF594 (zinc finger protein 594)
0.336 | 1.12 | -0.0405 | 0.328 | 0.772 | SLC7A4
0.61 | 2.41 | 0.658 | 0.563 | 0.497 | GPR52 (G protein-coupled receptor 52)
-0.432 | 4.25 | -0.516 | -0.53 | -0.473 | RCAN1 (regulator of calcineurin 1)
-0.21 | 1.97 | 0.0308 | -0.312 | -0.458 | GKAP1 (G kinase anchoring protein 1)
-0.0878 | 2.54 | 0.0344 | 0.0554 | -0.18 | TBC1D9 (TBC1 domain family member 9)
-0.265 | 1.35 | -0.406 | -0.246 | -0.0612 | UBE3C (ubiquitin protein ligase E3C)
0.685 | 1.04 | 0.584 | 0.413 | 0.756 | CWH43 (cell wall biogenesis 43 C-terminal homolog)
-0.0628 | 1.96 | -0.227 | -0.149 | 0.0479 | RHPN1-AS1 (RHPN1 antisense RNA 1)
0.37 | 1.36 | 0.606 | 0.508 | -0.232 | FJX1 (four-jointed box kinase 1)
0.204 | 2.38 | 0.193 | 0.504 | 0.298 | DPEP2 (dipeptidase 2)
